Measured values: patent US7348330B2, “1-azabicyclo [2,2,2] octan-3-one derivatives” (Aprea AB, priority 2000, dated 2008)
Some entries share one result that the patent states for a list of compounds.

Tested on: p53-responsive PG-luciferase reporter in Saos-2-His-273 cells
Test: PG-luciferase reporter assay
Assay type: cell-based, human
Conditions: PRIMA-1 50 μM, MIRA-1 10 μM; 1, 3.5 and 15 hours
Method: Transactivation assays using p53-responsive promoter constructs linked to the luciferase reporter gene (PG-luc) were performed by the Dual Luciferase Reporter Assay System (Promega) according to the manufacturer. […] A luciferase activity was assayed 1; 3.5 and 15 hours post-treatment.

CCC(=O)OCN1C(=O)C=CC1=O [MIRA-1]
stimulation of transcription of the luciferase gene: 1.5-2 fold
